From PubChem BioAssay AID1487 (National Center for Advancing Translational Sciences (NCATS), 2009)
This is one part of the list. These are further read-outs of the screen, such as a control signal, another cell line or another target. No call is given for them. The list favours compounds with an active or inconclusive main result. Words in brackets tell the shape of the fitted curve; partial curves, single points and poor fits give uncertain potencies.

Assay: qHTS Assay for Modulators of Lamin A Splicing
Conditions: HeLa LMNA splicing GFP/RFP minigene ratio, 48 h
Procedure, shortened: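 S3 HeLa cells stably expressing lamin A-EGFP splicing minigene plus DsRed2, 600 cells/well, 48 h compound exposure at 37C. Laser-scanning cytometry; analysed as GFP (500-530 nm)/RFP (575-640 nm) total intensity ratio; 0.5% DMSO vehicle.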

[1] = measured here: RFP viability control channel
[2] = measured here: GFP splicing reporter channel

SMILES	AC50 [1]	AC50 [2]
CCOC(=O)N1CCN(c2c(NCc3ccc(Cl)cc3)c(=O)c2=O)CC1	3.55 µM [rising, single point]	–
O=C(/C=C/c1c(F)cccc1Cl)Nc1nc2ccccc2[nH]1	–	6.31 µM [rising, partial curve]
C=C(C)C(=O)Nc1nnc(-c2cccs2)s1	12.6 µM [rising, partial curve]	–
CC(C)(C)c1nc2ccccc2c2nnc(SCC(=O)NCc3ccco3)n12	–	11.2 µM [rising, partial curve, poor fit]
O=c1[nH]c2ccccc2n1CCCSCCCn1c(=O)[nH]c2ccccc21	20 µM [rising, partial curve]	8.91 µM [rising, partial curve, poor fit]
CCC1Oc2ccccc2N(CC(=O)NCc2cc(OC)ccc2OC)C1=O (stereo unspecified)	11.2 µM [rising, partial curve, poor fit]	20 µM [rising, partial curve, poor fit]
O=C(COC(=O)/C=C/C(=O)OCC(=O)NC12CC3CC(CC(C3)C1)C2)NC12CC3CC(CC(C3)C1)C2	0.0112 µM [falling, full curve, poor fit]	0.01 µM [falling, full curve, poor fit]
O=C(c1ccc(C(F)(F)F)cc1)C1CCCN(C(=O)CCN2CCCO2)C1 (stereo unspecified)	–	35.5 µM [falling, single point]
CC1CCN(c2nnc(N)s2)CC1	–	0.0891 µM [rising, full curve, poor fit]
O=C(Nc1nc2ccccc2n1Cc1ccccc1)c1ccco1	12.6 µM [rising, partial curve]	–
OCCCCCNc1ncnc2ccccc12	8.91 µM [rising, partial curve]	7.94 µM [rising, partial curve]
CC1CCCCN1S(=O)(=O)c1ccc(C(=O)Nc2sccc2C(N)=O)cc1 (stereo unspecified)	35.5 µM [rising, single point]	35.5 µM [rising, single point]
O=C(NC(=S)Nc1ccc(N2CCOCC2)cc1)c1ccc2c(c1)OCCO2	10 µM [rising, partial curve]	2.51 µM [rising, full curve]
CC1CCCN(CC(O)COCc2ccc3c(c2)OCO3)C1 (stereo unspecified)	0.02 µM [rising, full curve, poor fit]	0.00282 µM [rising, full curve]
O=C(CSc1nccn1-c1cccc(Cl)c1)Nc1cccc2ccccc12	15.8 µM [falling, partial curve]	–
CN(C)S(=O)(=O)c1cccc(NC(=O)CSc2nc3c(cc2C#N)C(=O)CC(C)(C)C3)c1	11.2 µM [rising, partial curve]	–
CN(C)CCCNC(=O)COc1ccc(Br)cc1Cl	–	8.91 µM [rising, partial curve]
COc1cccc(C(=O)Nc2cccc(-c3nc4ncccn4c3C)c2)c1	–	0.631 µM [rising, single point]
Cn1c(SC2=CS(=O)(=O)c3ccccc32)nc2ccccc21	7.08 µM [falling, full curve]	6.31 µM [falling, full curve]
O=C(NNC(=S)Nc1cccc(C(F)(F)F)c1)c1ccc(Cl)cc1Cl	31.6 µM [rising, single point]	1.78 µM [rising, single point]
O=S(=O)(NCC(Nc1ccc(Cl)cc1)c1ccccc1)c1ccc(Cl)cc1 (stereo unspecified)	14.1 µM [rising, single point]	–
Cc1ccc2c(c1)C1(C(=O)N2)N2CCCC2C(C(=O)c2ccc3ccccc3c2)C12C(=O)Nc1ccccc12 (stereo unspecified)	8.91 µM [falling, partial curve]	35.5 µM [falling, single point]
O=C(CN1CCC(NC(=O)c2ccco2)CC1)Nc1ccccc1[N+](=O)[O-]	–	0.0158 µM [falling, full curve, poor fit]
Cc1ccc(-c2nc3c4ccccc4n(CC(=O)NCc4ccc(F)cc4)c(=O)n3n2)cc1	–	0.178 µM [rising, full curve, poor fit]
Cc1cc(C)n(Cc2ccc(Cl)nc2)n1	0.02 µM [falling, full curve, poor fit]	–
O=C(NCc1ccco1)c1ccc([N+](=O)[O-])o1	12.6 µM [rising, single point]	–
Cc1cc(-c2ccc(Br)s2)nc(-n2cccc2)n1	7.94 µM [rising, partial curve]	5.62 µM [rising, full curve]
N/C(Cc1ccc(Cl)cc1)=N\OC(=O)c1cccc2ccccc12	–	15.8 µM [rising, partial curve, poor fit]

SMILES	AC50 [1]	AC50 [2]
CC(=O)c1cccc(S(=O)(=O)N2CCCC(c3nc(-c4ccc(C)o4)no3)C2)c1 (stereo unspecified)	11.2 µM [rising, partial curve]	–
O=C(N/N=C/c1ccc(Br)o1)/C(=C/c1ccc([N+](=O)[O-])cc1)NC(=O)c1ccccc1	1.12 µM [rising, partial curve, poor fit]	–
CCC(C)(C)n1nnnc1CN1CCN(c2nc3cc(OC)ccc3cc2C#N)CC1	14.1 µM [rising, partial curve]	–
C=C(C)c1cccc(C(C)(C)NC(=O)Nc2ccc(Cl)cn2)c1	20 µM [rising, partial curve]	–
Cc1ccc(N/C=C2/Sc3ccccc3NC2=O)cc1	3.55 µM [rising, full curve]	6.31 µM [rising, single point]
NS(=O)(=O)c1ccc(NC(=S)NCc2ccc(F)cc2)cc1	8.91 µM [falling, partial curve, poor fit]	–
Cc1cc2c3c(c1C)C1(C(=O)N3C(C)(C)CC2C)C(C#N)=C(N)Oc2cc(O)ccc21 (stereo unspecified)	–	35.5 µM [rising, single point]
NC(=S)NNC(=O)[C@@H]1CCCC[C@@H]1C(=O)O	0.01 µM [falling, full curve, poor fit]	0.01 µM [falling, full curve, poor fit]
CCOC(=O)c1sc(SCC(=O)Nc2ccc(N(C)C)cc2)nc1N	0.501 µM [falling, partial curve]	0.631 µM [falling, partial curve]
CCOC(=O)C1=C(C)N(C)C(=S)NC1c1cccc(Cl)c1Cl (stereo unspecified)	11.2 µM [falling, partial curve, poor fit]	35.5 µM [falling, single point]
CCc1nc(SCc2ccc(F)cc2)[nH]c(=O)c1C#N	17.8 µM [rising, partial curve]	–
COC(=O)c1c(C)sc(-c2c(-c3cccc(OC)c3)[nH]c3c2c(=O)[nH]c(=O)n3C)c1O	0.501 µM [rising, partial curve, poor fit]	–
CCC(C)(C(=O)NC1CCCCC1)N(C(=O)CC1NC(=O)NC1=O)c1c(C)n(C)n(-c2ccccc2)c1=O (stereo unspecified)	–	0.158 µM [rising, full curve, poor fit]
COc1cccc(NC(=O)CSc2nnc(Cc3cccs3)n2-c2ccc(C)cc2)c1	–	0.708 µM [rising, partial curve]
COC(=O)c1c(NC(=O)CSc2nnc3ccccn23)sc2c1CCC2	20 µM [rising, partial curve]	–
CCN1CCN(CC(=O)N2CCCC(C(=O)c3ccc(Oc4ccccc4)cc3)C2)CC1 (stereo unspecified)	31.6 µM [rising, single point]	–
COc1cccc(NC(=O)CN(c2ccc([N+](=O)[O-])cc2)S(=O)(=O)c2ccccc2)c1	17.8 µM [rising, single point]	–
CCOc1ccc(S(=O)(=O)NCc2ccncc2)cc1	0.398 µM [rising, full curve]	7.08 µM [rising, partial curve]
Cc1cc(C)nc(NC(=NCCc2c[nH]c3ccccc23)NC(=O)c2ccco2)n1	22.4 µM [rising, single point]	31.6 µM [rising, single point]
O=C(Cc1cccc2ccccc12)Nc1ccccc1C(=O)O	10 µM [rising, partial curve]	–
COC(=O)c1ccc(-n2c(C)cc(-c3csc(NC(=O)c4ccc(S(=O)(=O)N(C)C)cc4)n3)c2C)cc1	6.31 µM [rising, full curve, poor fit]	–
Cc1ccc(N2C(=O)N(Cc3ccccc3C)c3ccccc3S2(=O)=O)cc1	17.8 µM [rising, single point]	11.2 µM [rising, single point]
CCCN(CCC)C(=O)Cn1ccc(=N)c2ccccc21	2 µM [rising, partial curve, poor fit]	12.6 µM [rising, single point]
CCn1c(SCC(=O)N/N=C/c2c[nH]c3ccccc23)nnc1-c1ccc(C(C)(C)C)cc1	22.4 µM [rising, partial curve]	14.1 µM [rising, partial curve]
COc1ccc(CNc2cc(C)nc3ncnn23)c(OC)c1	3.16 µM [rising, full curve]	7.94 µM [rising, partial curve, poor fit]
Cc1ccc(S(=O)(=O)c2c(Nc3cccc(Cl)c3)sc(C(=O)c3ccc4c(c3)OCO4)c2N)cc1	6.31 µM [rising, full curve]	–
Cc1ccc(C)c(-n2nnnc2SCC(=O)c2ccc3c(c2)NC(=O)CO3)c1	–	12.6 µM [rising, single point]

Another view of part of the listing above.

| SMILES | AC50 [1] | AC50 [2] |
| --- | --- | --- |
| COC(=O)c1c(C)sc(-c2c(-c3cccc(OC)c3)[nH]c3c2c(=O)[nH]c(=O)n3C)c1O | 0.501 µM [rising, partial curve, poor fit] | – |
| CCC(C)(C(=O)NC1CCCCC1)N(C(=O)CC1NC(=O)NC1=O)c1c(C)n(C)n(-c2ccccc2)c1=O (stereo unspecified) | – | 0.158 µM [rising, full curve, poor fit] |
